At least one compound was matched to its structure with a doubt left.
Tests used:
[1] = target: T1, aSyn aggregates on PD sections (Homo sapiens, UniProt P37840); assay: Assay 1 (fluorescence based assay): direct staining of human Parkinson's disease brain sections; type: binding; set-up: key: − (No); +/− (very weak); + (weak); ++ (good); +++ (strong); conditions: staining intensity; compound 100 μM, frozen amygdala sections, PD Braak stage V-VI
T1 construct: 20 μm frozen sections from amygdala were purchased from an external provider (Tissue Solutions Ltd.); tissue Tissue Solutions Ltd; host or cells: human PD amygdala, frozen sections, Braak stage V-VI
Source text: Assay 1 (Fluorescence Based Assay):
Direct Staining of Compounds of this Invention to Human Parkinson's Disease Brain Sections
20 μm frozen sections from amygdala were purchased from an external provider (Tissue Solutions Ltd.). Donors were diagnosed with PD, Braak stage V-VI (Braak et al., Neurobiol. Aging, 2003, 24, 197-211) and thus with confirmed aSyn pathology. PD donors, Braak stage V-VI with mixed pathology, containing aSyn aggregates as well as Aβ plaques, were also used in this assay. Sections were kept at −80° C. until start of the experiment.
Brain sections were encircled with pap pen liquid blocker to reduce the volume of solution for the different incubations. Sections were fixed for 15 min at 4° C. with 4% paraformaldehyde and washed three times for 5 minutes with PBS (phosphate buffered saline) at room temperature. Test compounds were incubated on the sections at 100 μM in 50% ethanol in water for 30 min at room temperature, followed by three washes of 5 minutes with PBS. Sections were then saturated and permeabilized in blocking buffer (PBS, 10% NGS, 0.25% Triton) for 1 hour at room temperature and then incubated for 2 hours at room temperature with the primary antibodies against aSyn: aSyn-211 (SantaCruz Biotechnology sc-12767) or aSyn-pS129 (Abcam AB51253), and primary antibody against AR, 4G8, (Covance, SIG-39220). All primary antibodies diluted 1/250 in PBS, 5% NGS, 0.25% Triton. […] To reduce auto-fluorescence of the tissue, the sections were incubated in a solution of 0.1% Sudan Black (Sigma 199664) in 70% ethanol for 15 min at room temperature, followed by four washes with PBS and mounted under cover slips using ProLong Gold Antifade reagent (Invitrogen P36930).
Sections were analyzed on the Nikon Eclipse Ti microscope to detect staining and imaged using Nikon DS-Fi2 camera and NIS-Element AR4.13.1 software.

[2] = test system: Aβ plaques on AD sections; assay: Assay 1 (fluorescence based assay): direct staining of human Alzheimer's disease brain sections; type: binding; set-up: key: − (No); +/− (very weak); + (weak); ++ (good); +++ (strong); conditions: staining intensity; compound 100 μM, frozen amygdala sections, AD Braak stage V-VI
Experimental: Direct Staining of Compounds of this Invention to Human Alzheimer's Disease Brain Sections 20 μm frozen sections from amygdala were purchased from an external provider (Tissue Solutions Ltd.). Donors were diagnosed with AD, Braak stage V-VI (Braak et al., Neurobiol. Aging, 1995, 16, 271-284) and thus with confirmed Aβ pathology. Sections were kept at −80° C. until start of the experiment. Brain sections were encircled with pap pen liquid blocker to reduce the volume of solution for the different incubations. Sections were fixed for 15 min at 4° C. with 4% paraformaldehyde and washed three times for 5 minutes with PBS at room temperature. Test compounds were incubated on the sections at 100 μM in 50% ethanol in water for 30 min at room temperature, followed by three washes of 5 minutes with PBS. Sections were then saturated and permeabilized in blocking buffer (PBS, 10% NGS, 0.25% Triton) for 1 hour at room temperature and then incubated for 2 hours at room temperature with the primary antibodies against AR, 4G8, (Covance, SIG-39220), diluted 1/250 in PBS, 5% NGS, and 0.25% Triton. After three washes in PBS, the sections were incubated for 30 minutes at room temperature with a secondary anti-mouse antibody labeled with AlexaFluor555 (Invitrogen A21422) and further washed three times in PBS. To reduce auto-fluorescence of the tissue, the sections were incubated in a solution of 0.1% Sudan Black (Sigma 199664) in 70% ethanol for 15 min at room temperature, followed by four washes with PBS and mounted under cover slips using ProLong Gold Antifade reagent (Invitrogen P36930). Sections were analyzed on the Nikon Eclipse Ti microscope to detect staining and imaged using Nikon DS-Fi2 camera and NIS-Element AR4.13.1 software.

Row | SMILES | Staining of aSyn aggregates on PD sections [1] | Staining of Aβ plaques on AD sections [2]
1 | CNc1ccc(-c2ccc3sc(-c4cccnc4)cc3n2)cn1 [Example 6] | ++ | ++
2 | CNc1ccc(-c2ccc3cc(-c4ccccc4O)sc3n2)cn1 [Example 2] | ++ | ++
3 | CNc1ccc(-c2ccc3cc(-c4ccc(N(C)C)nc4)sc3n2)cn1 [Example 4] | +++ | +
